Data source: PubChem BioAssay AID1259405 (NCATS, 2018)

- Aim: 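Silenced genes that increase secreted GFP made by CHO cells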 (primary screen)
- System: Chinese hamster CHO-K1 ovary cells with stable secreted eGFP expression
- Reagent: single siRNA against mouse genes, 0.8 pmol siRNA per well (2 µl of 400 nM stock)
- Time to read-out: 3 days
- Detection: 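Per-well intracellular GFP measured by laser scanning cytometry, plus viability from ATP luminescence, each relative to plate median of non-targeting control wells, in %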
- Reading the numbers: GFP, % of control: higher = more GFP per well, higher productivity; viability (ATP), % of control: higher = more viable cells (more ATP)
- Hit rule: 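a knock-down is called active if GFP reaches 120% or more of non-targeting control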
This is one part, drawn at random, of about 50,000 deposited reagents. About 4,000 of them (8%) were called active. 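Mouse siRNA library applied to hamster cells; one well for each siRNA.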 A number with no mark means an inactive call. The numbers tell different reagents against one gene apart.

| gene knocked down | reagent no. | GFP, % of control | viability (ATP), % of control |
| --- | --- | --- | --- |
| Or10q3 (GeneID 257938) | 1 | 130 (active) | 60.3 |
| Or10q3 (GeneID 257938) | 2 | 103 | 96 |
| Or10q3 (GeneID 257938) | 3 | 73.4 | 73.5 |
| Rnaseh2c (GeneID 68209) | 1 | 90.3 | 74.8 |
| Rnaseh2c (GeneID 68209) | 2 | 107 | 89.5 |
| Rnaseh2c (GeneID 68209) | 3 | 145 (active) | 58.1 |
| Reep1 (GeneID 52250) | 1 | 72.3 | 43.4 |
| Reep1 (GeneID 52250) | 2 | 78.5 | 76.5 |
| Reep1 (GeneID 52250) | 3 | 74.6 | 62.1 |
| Alad (GeneID 17025) | 1 | 97.7 | 112 |
| Alad (GeneID 17025) | 2 | 64 | 73 |
| Ccdc202 (GeneID 66732) | 1 | 71.9 | 71.4 |
| Ccdc202 (GeneID 66732) | 2 | 48.9 | 61.4 |
| Ccdc202 (GeneID 66732) | 3 | 69.1 | 82.2 |
| Atad3a (GeneID 108888) | 1 | 86.9 | 83.1 |
| Atad3a (GeneID 108888) | 2 | 56.3 | 71.4 |
| Atad3a (GeneID 108888) | 3 | 50.2 | 57.1 |
| Vmn1r49 (GeneID 24112) | 1 | 47.3 | 70.4 |
| Vmn1r49 (GeneID 24112) | 2 | 57.1 | 66.4 |
| Vmn1r49 (GeneID 24112) | 3 | 83.8 | 93.5 |
| Gm128 (GeneID 229588) | 1 | 68.4 | 74.7 |
| Gm128 (GeneID 229588) | 2 | 83.8 | 82.4 |
| Gm128 (GeneID 229588) | 3 | 68.2 | 42.8 |
| Adgrl4 (GeneID 170757) | 1 | 109 | 127 |
| Adgrl4 (GeneID 170757) | 2 | 93.1 | 84.5 |
| Adgrl4 (GeneID 170757) | 3 | 36 | 73 |
| Prkaca (GeneID 18747) | 1 | 114 | 113 |
| Or1l4 (GeneID 258656) | 1 | 34.9 | 40.9 |
| Or1l4 (GeneID 258656) | 2 | 71 | 75.8 |
| Or1l4 (GeneID 258656) | 3 | 46.6 | 64.9 |
| Ereg (GeneID 13874) | 1 | 54.1 | 74.8 |
| Ereg (GeneID 13874) | 2 | 77.8 | 51.7 |
| Ereg (GeneID 13874) | 3 | 92.6 | 107 |
| Mrpl36 (GeneID 94066) | 1 | 78.1 | 74.2 |
| Mrpl36 (GeneID 94066) | 2 | 53 | 22.7 |
| Mrpl36 (GeneID 94066) | 3 | 71.4 | 77.1 |
| Vmn2r43 (GeneID 381838) | 1 | 60.5 | 55.3 |
| Vmn2r43 (GeneID 381838) | 2 | 91.7 | 90.2 |
| Vmn2r43 (GeneID 381838) | 3 | 51.6 | 79.2 |

Copied from the entries so far (10 entries):
| gene knocked down | reagent no. | GFP, % of control | viability (ATP), % of control |
| --- | --- | --- | --- |
| Atad3a (GeneID 108888) | 2 | 56.3 | 71.4 |
| Atad3a (GeneID 108888) | 3 | 50.2 | 57.1 |
| Vmn1r49 (GeneID 24112) | 1 | 47.3 | 70.4 |
| Vmn1r49 (GeneID 24112) | 2 | 57.1 | 66.4 |
| Vmn1r49 (GeneID 24112) | 3 | 83.8 | 93.5 |
| Gm128 (GeneID 229588) | 1 | 68.4 | 74.7 |
| Gm128 (GeneID 229588) | 2 | 83.8 | 82.4 |
| Gm128 (GeneID 229588) | 3 | 68.2 | 42.8 |
| Adgrl4 (GeneID 170757) | 1 | 109 | 127 |
| Adgrl4 (GeneID 170757) | 2 | 93.1 | 84.5 |

Next records follow.
| gene knocked down | reagent no. | GFP, % of control | viability (ATP), % of control |
| --- | --- | --- | --- |
| Pcdhgb2 (GeneID 93700) | 1 | 107 | 70.7 |
| Pcdhgb2 (GeneID 93700) | 2 | 54.9 | 62.6 |
| Pcdhgb2 (GeneID 93700) | 3 | 49.2 | 63.7 |
| C130046B21Rik (GeneID 442817) | 1 | 33.9 | 37.2 |
| C130046B21Rik (GeneID 442817) | 2 | 60.4 | 77.1 |
| C130046B21Rik (GeneID 442817) | 3 | 88.1 | 93 |
| Pfpl (GeneID 56093) | 1 | 46.2 | 47.8 |
| Pfpl (GeneID 56093) | 2 | 69.6 | 40 |
| Pfpl (GeneID 56093) | 3 | 117 | 95.5 |
| Pkp2 (GeneID 67451) | 1 | 86.3 | 75.8 |
| Pkp2 (GeneID 67451) | 2 | 52.5 | 55.2 |
| Pkp2 (GeneID 67451) | 3 | 70.2 | 75.5 |
| Brf2 (GeneID 66653) | 1 | 60.6 | 72.2 |
| Brf2 (GeneID 66653) | 2 | 96.2 | 83.7 |
| Zfp277 (GeneID 246196) | 1 | 107 | 62.9 |
| Zfp277 (GeneID 246196) | 2 | 69.7 | 60.6 |
| Zfp277 (GeneID 246196) | 3 | 78.5 | 93.7 |
| Map10 (GeneID 74393) | 1 | 86.4 | 114 |
| Map10 (GeneID 74393) | 2 | 69 | 95.8 |
| Map10 (GeneID 74393) | 3 | 99.9 | 144 |
| Klhl24 (GeneID 75785) | 1 | 139 (active) | 71.8 |
| Klhl24 (GeneID 75785) | 2 | 106 | 63.9 |
| Klhl24 (GeneID 75785) | 3 | 69.5 | 82.5 |
| Bcam (GeneID 57278) | 1 | 20.2 | 21.7 |
| Bcam (GeneID 57278) | 2 | 78.1 | 84.9 |
| Bcam (GeneID 57278) | 3 | 55.2 | 84.3 |
| Nmd3 (GeneID 97112) | 1 | 89.9 | 95.6 |
| Nmd3 (GeneID 97112) | 2 | 91.9 | 84.4 |
| Nmd3 (GeneID 97112) | 3 | 81.3 | 138 |
| L3hypdh (GeneID 67217) | 1 | 56.7 | 59.7 |
| L3hypdh (GeneID 67217) | 2 | 120 | 85.9 |
| L3hypdh (GeneID 67217) | 3 | 64.3 | 50.4 |
| Polr3f (GeneID 70408) | 1 | 73.8 | 78.6 |
| Polr3f (GeneID 70408) | 2 | 66.9 | 78.2 |
| Ifna4 (GeneID 15967) | 1 | 75.4 | 65.3 |
| Ifna4 (GeneID 15967) | 2 | 67.6 | 70.8 |
| Ifna4 (GeneID 15967) | 3 | 54 | 53.7 |
| Ankrd13b (GeneID 268445) | 1 | 72.2 | 72.2 |
| Ankrd13b (GeneID 268445) | 2 | 97.2 | 96.7 |
| Ankrd13b (GeneID 268445) | 3 | 53.1 | 49.5 |
| Nox1 (GeneID 237038) | 1 | 110 | 122 |
| Nox1 (GeneID 237038) | 2 | 30.3 | 46.8 |
| Nox1 (GeneID 237038) | 3 | 80.2 | 74.4 |
| N4bp2 (GeneID 333789) | 1 | 61.5 | 60.2 |
| N4bp2 (GeneID 333789) | 2 | 95.2 | 85.6 |
| N4bp2 (GeneID 333789) | 3 | 74.1 | 55.4 |
